# Library screening results

Source: ChEMBL document CHEMBL3988442, “University of Dundee, Small-Polar-MMV Screening Library” (2021).

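Viability assay of Plasmodium falciparum sporozoites; the read-out is not stated. The concentration is filed as 10 mM, unlikely as a test dose, so the dose is not known. Direction is inferred from retests: higher values go with lower viability. Strong results were mostly tested again. About 34,000 compounds were tested under these conditions; 0.84% (about 280) showed 50% or more at least once.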

Values are the deposited “Percent Effect”, in %.
How 0% and 100% were set is not recorded. Most values in the screen are low, and negative values occur.
The compounds are a random part of those screened.
Two or more numbers in one place are separate tests of the same structure; such repeats can differ widely.

| # | compound | effect |
|---|---|---|
| 1 | `COC(=O)C(c1cc(F)ccc1F)N(C)C(=O)c1csnn1` (stereo not drawn) | 9.785% |
| 2 | `Cc1ccc(Cl)cc1NC(=O)C1CC(=O)N(Cc2ccccn2)C1` (stereo not drawn) | -2.449% |
| 3 | `CN1CCN(S(=O)(=O)c2cccc(F)c2)c2ccccc21` | -3.179% |
| 4 | `O=C(O)C(F)(F)F.[H][C@@]12COC[C@]1(COCC(=O)N(C)C)CN(C1CCCC1)C2` | 15.8% |
| 5 | `CN1CCC(c2cccc(Cc3ccc(C(F)(F)F)cc3)n2)CC1` | 3.398% |
| 6 | `Cc1ccnc(NC(=O)c2ccc(-n3ncc(C#N)c3N)cc2)c1` | 11.53% |
| 7 | `O=C(c1ccc2c(c1)OCCCO2)N1CCCCC1C1OCCO1` (stereo not drawn) | 22.27% & 46.4% & 21.75% |
| 8 | `[H][C@]12CN(Cc3ccco3)C[C@@]1([H])OCCN(C(=O)c1cccn1C)C2` | 3.485% |
| 9 | `CC(Cn1cccn1)NCc1nc(-c2ccccc2Cl)no1` (stereo not drawn) | -7.271% |
| 10 | `O=C(O)C(F)(F)F.[H][C@]12CCC[C@@H](CN(C)C3CC3)[C@@]1([H])CN(c1cc(OC)ncn1)C2` | -2.021% |
| 11 | `CN1CC2(CCC1=O)CCN(CC[C@@H](O)c1ccccc1)CC2` | 5.817% |
| 12 | `COc1ccc(CCNC(=O)CN2CCCC2c2noc(C)n2)cc1` (stereo not drawn) | 11.56% |
| 13 | `Cc1nnc(CN2CCC(N(C)Cc3nnc(C4CC4)n3C)C2)o1` (stereo not drawn) | 2.24% |
| 14 | `COCCC(=O)N1C[C@@H](c2ccccc2F)[C@@]2(CCCC(=O)N2)C1` | -6.135% |
| 15 | `CCN(CCNC(=O)C1CCN(C(C)=O)CC1)c1ccccc1C` | -7.086% |
| 16 | `Cn1ncc2c(=O)[nH]c(N3CCN(C(=O)c4ccsc4)CC3)nc21` | -0.32% |
| 17 | `COc1ccc2c(=O)n(CC3CCCN(C)C3)ccc2c1OC` (stereo not drawn) | 5.799% |
| 18 | `CC(C)Cc1noc(CN2CCN(CCO)CC2)n1` | -3.627% |
| 19 | `CC1COCCN1Cc1nc(-c2cccs2)no1` (stereo not drawn) | 8.64% |
| 20 | `COCCN1CCN(CC(=O)N(C)Cc2ccsc2)CC1C` (stereo not drawn) | -0.5329% |
| 21 | `Cn1nccc1-c1cnc2n1CCNC21CCN(C(=O)C2(C)CC2)CC1` | -3.376% |
| 22 | `Cc1nc(C(=O)N2CCCC(n3cncn3)C2)cs1` (stereo not drawn) | 3.773% & -21.96% & 14.43% |
| 23 | `Cc1noc(C2CCC3(CCN(C(=O)c4cnn(C)c4)CC3)O2)n1` (stereo not drawn) | -7.632% |
| 24 | `CN(C)[C@@H]1CN(Cc2cccnc2)C[C@H]1c1cn(C)c2ccccc12.Cl` | -4.208% |
| 25 | `CCNC(=O)NC(=O)CSC(C)c1ccccc1F` (stereo not drawn) | -1.073% |
| 26 | `N#Cc1cccc(OCCN2CCn3c(nnc3C3CC3)C2)c1` | 0.1972% |
| 27 | `CC(CNC(=O)N1CCN(c2cnccn2)CC1)Cc1cccs1` (stereo not drawn) | -11.27% |
| 28 | `CC(=O)N1CCC2(CC1)c1ncc(-c3cccnc3)n1CCN2C` | 6.726% |
| 29 | `Cl.Cn1ncc2c1CCCC2NCc1cccc(C(F)(F)F)c1` (stereo not drawn) | -3.477% |
| 30 | `O=C1NC2(CCc3ccccc31)CCN(C(=O)c1cccnc1)C2` (stereo not drawn) | 2.007% |
| 31 | `Cc1nc(NC(=O)OC(C)(C)C)sc1C#N` | -34.59% |
| 32 | `[H][C@]12C[C@H](C(=O)NC)N(C(C)=O)[C@@]1([H])CN(S(=O)(=O)c1ccccc1)C2` | -12.43% |
| 33 | `Cc1occc1C(=O)N1CCCC(C2=Nc3ccccc3S(=O)(=O)N2)C1` (stereo not drawn) | -0.5775% |
| 34 | `CN(C)CC(=O)N1CCC2(CCN(Cc3ccccn3)C2=O)C1` (stereo not drawn) | -8.613% |
| 35 | `CN(C)[C@@H]1CCN(c2ncccn2)[C@H]1Cc1ccccc1` | -3.053% |
| 36 | `[H][C@]12CN(Cc3cc(C)no3)CCN1C[C@H](c1ccccc1)[C@H]2C(=O)NC` | -107.1% |
| 37 | `CC1c2ncc(CNC(=O)C3CC3)n2CCN1Cc1ccccn1.O=C(O)C(F)(F)F.O=C(O)C(F)(F)F` (stereo not drawn) | 2.867% |
| 38 | `CS(=O)(=O)c1ccc(CNC(=O)N2CCC(C(N)=O)CC2)cc1` | 16.73% |
| 39 | `c1ccc(OCCN2CCC(c3nnc(-c4cccnc4)o3)CC2)cc1` | -3.337% |
| 40 | `Cc1nc(CN2CCCC2c2c(C)nn(C)c2Cl)no1` (stereo not drawn) | -5.297% |
| 41 | `CCc1ocnc1C(=O)N1CCCC(n2nc(C)nc2C)C1` (stereo not drawn) | -1.11% |
| 42 | `COc1ccc(CNC(Cc2cccs2)c2nc(C)c(C)s2)cc1OC.Cl` (stereo not drawn) | 8.271% |
| 43 | `O=C(CCc1ccccn1)N1CCc2cc(Cl)cc(Cl)c2C1` | -0.6543% |
| 44 | `O=C(Nc1ccc(N2CCCCC2)nc1)N1CCc2sccc2C1` | -2.485% & -38.68% & -25.91% |
| 45 | `NC(=O)C1(Cc2ccccc2-c2cncnc2)CCCNC1` (stereo not drawn) | 12.19% |
| 46 | `CN(Cc1ccsc1)C(=O)c1cc2c([nH]c1=O)CCC2` | -12.78% |
| 47 | `Cc1cnc(CC2COCCN(C(=O)c3cncs3)C2)cn1` (stereo not drawn) | 1.165% |
| 48 | `CCc1ncc(C(=O)NCCNc2ncnc3sccc23)s1` | -35.63% & -22.98% |
| 49 | `Cc1cn2c(=O)c(-c3ccnc(N(C)C4CCCCC4)n3)cnc2s1` | -0.254% |
| 50 | `CCN(CC)S(=O)(=O)N1CCCC1c1cccc(Nc2ncc(C)s2)n1` (stereo not drawn) | 7.635% |
| 51 | `CSc1ccc(-c2nc(CN3CCCC(CNC(C)=O)C3)c(C)o2)cc1` (stereo not drawn) | 43.99% & 14.8% & 36.06% |
| 52 | `O=C(Cc1csc(-c2ccccc2Cl)n1)NCc1cccc(C(=O)O)c1` | 0.4579% |
| 53 | `Cc1cccc(CN2CC3(CCN(C(N)=O)CC3)OCC2=O)n1` | -26.58% & -4.474% & -28.59% |
| 54 | `Cc1cnn(CCC(=O)N2CCN(c3ncccc3Cl)CC2)c1` | 3.341% |
| 55 | `COCCN1CCC2(CC1)CCN(Cc1ccccn1)CC2.O=C(O)C(F)(F)F.O=C(O)C(F)(F)F` | 7.968% |
| 56 | `CCN1C(=O)CC(c2ccccc2)C12CCN(CC1CCOCC1)CC2.O=C(O)C(F)(F)F` (stereo not drawn) | 3.59% |
| 57 | `CCCNC(=O)COc1cc(C)c2c(C)nn(-c3ccc(C)cc3)c2n1` | 3.671% |
| 58 | `CC(=O)N(Cc1noc(C)n1)C1CCN(Cc2c(C)noc2C)C1` (stereo not drawn) | 8.035% |
| 59 | `Cc1noc(C)c1S(=O)(=O)NC(=O)COc1ccc2c(c1)CCC2` | 3.94% |
| 60 | `CCCc1nc(C)c(C(=O)NCCN2CCN(CC)CC2)s1` | -9.778% |
| 61 | `COc1ccccc1CNC(Cc1cccs1)c1nc(C)cs1.Cl` (stereo not drawn) | -2.216% |
| 62 | `O=C(C1CCC1)N1CCCC(c2cccc(-n3ccnc3)n2)C1` (stereo not drawn) | -2.51% |
| 63 | `CC(=O)N1CCC(NC(=O)N2CCN(c3cnccn3)CC2)CC1` | 6.69% |

Once more, the final 8:

| compound | effect |
|---|---|
| `CCN1C(=O)CC(c2ccccc2)C12CCN(CC1CCOCC1)CC2.O=C(O)C(F)(F)F` (stereo not drawn) | 3.59% |
| `CCCNC(=O)COc1cc(C)c2c(C)nn(-c3ccc(C)cc3)c2n1` | 3.671% |
| `CC(=O)N(Cc1noc(C)n1)C1CCN(Cc2c(C)noc2C)C1` (stereo not drawn) | 8.035% |
| `Cc1noc(C)c1S(=O)(=O)NC(=O)COc1ccc2c(c1)CCC2` | 3.94% |
| `CCCc1nc(C)c(C(=O)NCCN2CCN(CC)CC2)s1` | -9.778% |
| `COc1ccccc1CNC(Cc1cccs1)c1nc(C)cs1.Cl` (stereo not drawn) | -2.216% |
| `O=C(C1CCC1)N1CCCC(c2cccc(-n3ccnc3)n2)C1` (stereo not drawn) | -2.51% |
| `CC(=O)N1CCC(NC(=O)N2CCN(c3cnccn3)CC2)CC1` | 6.69% |